Some of the results follow. Further columns of the screen follow, without active or inactive calls. Compounds called inactive in the main read-out are mostly missing here. The note in brackets gives the kind of curve behind each potency; many fits are weak.

The term AC50 denotes the concentration at which the activity in the assay is half-maximal.

This experiment in a line: qHTS Assay to Find Inhibitors of Chronic Active B-Cell Receptor Signaling. The note with it: ABC-DLBCL IkBa-CBG/CBR reporter, luminescence ratio (green luciferase fused to IkBa over red control in TMD8 lymphoma cells), 4 h. The essentials:
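TMD8 human ABC-DLBCL cells with doxycycline-inducible IκBα–green luciferase fusion and unfused red luciferase, in 0.5% FBS medium; compounds up to 46 uM, 4 h at 37C. Green/red luminescence ratio, filter-overlap corrected, fitted to concentration-response curves.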
A general note: Quantitative high-throughput screening tests each substance at several concentrations.

Where [1] appears, read: measured here: CBR red luminescence, cell number.
The mark [2] stands for this setting: measured here: IkBa-CBG green luminescence.

As for `O=C(CSc1nnc(Cc2ccccc2)o1)NCc1ccco1`, under setting [1], the AC50 was 4.47 µM [rising, single point].

Take `O=C(COC(=O)c1cccnc1Cl)NC(=O)NC1CCCCC1`: the AC50 under setting [1] is 18.4 µM [rising, single point].

With `CC12CN3CC(C)(CN(C1)C3c1ccccc1F)C2` (centres undefined), under setting [1], the AC50 was 1.41 µM [rising, partial curve, poor fit].

As for `CCN(CC(=O)Nc1cccc(F)c1)Cc1nc2ccccc2c(=O)[nH]1`, the AC50 under setting [1] is 35.5 µM [falling, single point].

For `C[C@]1(C(=O)NCc2cc(F)cc(C(F)(F)F)c2)C=C[C@@H](Cc2ccccc2)N1C(=O)c1ccccc1`, the AC50 is 20.6 µM [falling, single point] under setting [1] and 25.9 µM [rising, partial curve, poor fit] under setting [2].

On to `O=c1c2ccccc2oc2cc(-c3ccc4cc[nH]c4c3)ccc12`, for which the AC50 under setting [1] was 8.2 µM [rising, partial curve, poor fit].

With `N#C/C(C(N)=O)=c1/ccc2c(c1)N1C3=C(CCCC3)CC3CCCCC31N=2` (centres undefined), the AC50 was 22.4 µM [falling, single point] under setting [1] and 17.8 µM [rising, single point] under setting [2].

As to `C=CCSc1nnc(-c2nnc(SCC=C)n2-c2ccccc2)n1-c1ccccc1`, the AC50 under setting [1] was 12.6 µM [falling, single point].

Consider `Cc1ccc(CN2CCSc3ccc(C(=O)NCc4cccnc4)cc32)cc1`, for which, under setting [1], the AC50 was 35.5 µM [falling, single point].

Regarding `O=C(Nc1ccc(F)cc1F)N1CCCN(CCOc2ccccc2)CC1`, under setting [1], the half-maximal activity concentration (AC50) was 35.5 µM [rising, single point].

On to `O=C(OCc1ccc(Br)cc1)c1cccnc1Cl`, for which the half-maximal activity concentration (AC50) under setting [1] is 14.1 µM [rising, partial curve, poor fit].

Take `Cc1cc(C)c2nc(NNC(=O)c3cc(=O)c4ccccc4o3)sc2c1`: the AC50 under setting [1] is 3.98 µM [falling, full curve].

`COc1ccc(C(=O)NC2CCN(C(=S)Nc3ccc(C)cc3)CC2)cc1`: the AC50 under setting [1] is 3.16 µM [rising, full curve].

Consider `O=C(NCCc1ccc(F)cc1)Nc1ccccc1Cl`, for which, under setting [1], the AC50 was 12.6 µM [falling, partial curve].

On to `O=C(Cn1cc2c(n1)CCCC2)NCc1ccccn1`, for which the AC50 under setting [1] was 7.31 µM [rising, partial curve, poor fit].

With `CCCn1nc(Oc2nc(NCC)nc(NC(C)C)n2)ccc1=O`, the AC50 under setting [1] is 20 µM [rising, single point].

In the case of `COc1ccc(Cc2nn3c(-c4ccccc4Br)nnc3s2)cc1`, the AC50 under setting [1] was 29.1 µM [falling, single point].

Consider `O=C1NC(=S)N/C1=C/c1ccc(-c2c(Br)cc([N+](=O)[O-])cc2Br)o1`, for which the AC50 under setting [1] is 18.4 µM [rising, single point].

In the case of `CCOc1cccc(C(c2c(C)n(C)n(-c3ccccc3)c2=O)c2c(C)n(C)n(-c3ccccc3)c2=O)c1OC`, under setting [1], the AC50 was 20 µM [falling, single point].

`CCOC(=O)[C@H]1[C@H]2COc3ccc(Cl)cc3[C@@H]2N2C(=O)c3cc(F)c(F)cc3NC(=O)[C@@]12C`: under setting [1], the AC50 was 20.6 µM [falling, single point].

For the molecule `CC(C)C(=O)Nc1ccccc1C(=O)OCC(=O)c1ccc2c(c1)OCCO2`, the AC50 under setting [1] was 29.1 µM [falling, single point].

Take `COc1cccc(C(=O)NC(=S)Nc2ccccc2N2CCOCC2)c1`: the AC50 under setting [1] is 0.447 µM [falling, full curve, poor fit].

As for `Cc1ccc(S(=O)(=O)N2CCN(C(=O)CSC(=S)N3CCCC3)CC2)c(C)c1`, the AC50 reads like this: under setting [1], 1.64 µM [rising, partial curve]; under setting [2], 4.61 µM [falling, partial curve, poor fit].

On to `COc1cc(-c2[nH]ncc2CN2CCCC2c2nonc2C)cc(OC)c1OC` (centres undefined), for which, under setting [1], the AC50 is 6.31 µM [rising, single point].

Consider `COc1ccc(CCNC(=O)c2ccc(S(=O)(=O)N3CCCCC3)cc2)cc1`, for which the AC50 under setting [1] is 4.61 µM [rising, partial curve, poor fit].

Turning to `O=C(O)c1cnn2c(C(F)(F)F)cc(-c3ccccc3)nc12`, the AC50 under setting [1] was 6.51 µM [falling, single point].

As for `CCCCCC(=O)Nc1ccc(-c2csc(N)n2)cc1`, the AC50 under setting [1] was 20 µM [falling, single point].

`O=C(CC1c2ccccc2Oc2ccccc21)N1CCN(c2ccccn2)CC1`: the half-maximal activity concentration (AC50) under setting [1] is 22.4 µM [falling, partial curve].

Regarding `O=Cc1c(N2CCCCCC2)nc2ccccn2c1=O`, the AC50 under setting [1] was 29.1 µM [rising, single point].

For the molecule `O=C(Nc1ccc2c(c1)OCO2)c1ccccc1`, the half-maximal activity concentration (AC50) under setting [1] is 7.08 µM [falling, full curve, poor fit].

For the molecule `CCCc1nc2ccccc2n1CCOc1ccccc1`, under setting [1], the concentration at half-maximal activity (AC50) was 5.8 µM [falling, partial curve].

On to `CC1=NN(C(N)=S)C(=O)C1N=Nc1cccc(C)c1` (centres undefined), for which the AC50 by setting is: under setting [1], 0.708 µM [rising, full curve, poor fit]; under setting [2], 1.41 µM [falling, full curve].

As to `CC(CC(=O)Nc1ccc(Cl)c([N+](=O)[O-])c1)c1ccccc1` (centres undefined), under setting [1], the AC50 is 10 µM [rising, partial curve, poor fit].

`O=c1[nH]c(=S)n(-c2cccc(Cl)c2)c(O)c1/C=N/N1CCOCC1`: the AC50 under setting [1] is 15.8 µM [rising, single point].

Take `O=C(Nc1cccc(Cl)c1)c1cccc(Oc2ccc([N+](=O)[O-])cc2Cl)c1`: the AC50 under setting [1] is 23.1 µM [falling, single point].

In the case of `COc1ccc(OC)c(C2C3=C(N=C4SCC(=O)N42)c2ccccc2CC3)c1` (centres undefined), the AC50 under setting [1] is 35.5 µM [falling, single point].

`COc1cc(C(=O)NS(=O)(=O)c2ccccc2C)ccc1Cc1cn(C)c2ccc(NC(=O)OC3CCCC3)cc12`: the AC50 under setting [1] was 35.5 µM [falling, single point].

Take `CCCNC(=O)Cn1cnc2sc(C(=O)NCCCN3CCOCC3)c(C)c2c1=O`: the AC50 under setting [1] was 35.5 µM [falling, single point].

Regarding `CCC/C(O)=C1\C(=O)CC(C)(C)CC1=Nc1ccccc1OC`, the AC50 under setting [1] was 14.1 µM [falling, single point].

As for `Oc1ccccc1CNc1ccc(OC(F)(F)F)cc1`, the half-maximal activity concentration (AC50) under setting [1] was 2.51 µM [rising, partial curve, poor fit].

The values above are taken from PubChem BioAssay AID493014 (National Center for Advancing Translational Sciences (NCATS), 2011).
